Experimental data: PubChem BioAssay AID1508588 (Peter MacCallum Cancer Centre, 2020)
The deposit covers about 18,000 reagents; shown is an unselected part. Of all reagents, 790 (4.4%) were called active. 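Calls rest on a combination of fold-change classes in drug and vehicle arms, not all shown here.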 The numbers tell different reagents against one gene apart.

- Purpose: 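Genome-wide search for knock-downs that heighten vemurafenib action in melanoma cells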 (primary screen)
- Cells: human WM266.4 melanoma cells (BRAF V600 mutant)
- Knock-down reagent: siRNA pool against human genes, 40 nM
- Time to read-out: 96 h from transfection to read-out
- Conditions: vemurafenib 300 nM (about IC25), added 48 h after transfection, for 48 h; comparison arm got DMSO vehicle only
- Measurement: 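Ratios to non-targeting siRNA for cell gain, counted as DAPI nuclei after minus before drug and averaged over two replicates, and for absorbance-read medium lactate per cell; both binned into fold-change classes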
- Direction: cell gain with vemurafenib: higher = more cell gain than with non-targeting siRNA; lactate per cell with vemurafenib: higher = more lactate made per cell
- Rule for the call: 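a knock-down counts as enhancing when its fold-change classes with vehicle and with vemurafenib, taken together, show a stronger drug effect on cell gain or lactate per cell; exact class pairs not stated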
- Calls: active = enhances vemurafenib effect; inactive = no enhancement seen

gene	pool no.	cell gain with vemurafenib	lactate per cell with vemurafenib	outcome
NDUFS8	1	0.8	1.06	inactive
ICA1L	1	0.41	0.96	inactive
SYBU	1	0.58	1.56	inactive
MIIP	1	0.58	0.77	inactive
C4B	1	0.34	1.45	inactive
TRIM28	1	1.01	0.84	inactive
TFG	1	0.71	1.11	inactive
CLEC1A	1	0.46	1.66	inactive
ACAT2	1	0.71	0.59	inactive
TFF3	1	0.93	0.8	inactive
MMP19	1	0.57	1.03	inactive
EHMT2	1	0.39	1.36	inactive
NDUFB9	1	0.87	1.17	inactive
FOLH1B	1	0.13	0.53	active
LARP4	1	0.83	0.65	inactive
PHTF2	1	0.39	0.24	inactive
RNF182	1	0.9	0.84	inactive
OGG1	1	0.76	0.64	inactive
PRR7	1	0.6	0.85	inactive
BRCA1	1	0.98	1.08	inactive
ACTL8	1	0.75	1.16	inactive
C1orf54	1	0.82	0.85	inactive
TEX11	1	0.6	0.22	inactive
SUCO	1	0.49	1.09	inactive
SCAP	1	1.31	0.8	inactive
CSNK2A1	1	1.12	0.58	inactive
DEFB130A	1	0.56	0.55	inactive
FAM8A1	1	0.55	1.03	inactive
SLC18B1	1	1.29	0.78	inactive

Continued; the last 3 above are carried over.
gene	pool no.	cell gain with vemurafenib	lactate per cell with vemurafenib	outcome
DEFB130A	1	0.56	0.55	inactive
FAM8A1	1	0.55	1.03	inactive
SLC18B1	1	1.29	0.78	inactive
SIPA1L3	1	0.69	0.76	inactive
ANP32D	1	0.82	1.32	inactive
EBF3	1	0.67	0.94	inactive
KAT14	1	0.56	0.4	inactive
GPR158	1	0.09	0.48	active
KRTAP3-2	1	0.61	0.63	inactive
SNX29	1	0.66	1.06	inactive
SNX29	2	0.85	1.18	inactive
PFDN2	1	0.78	1.05	inactive
EMC7	1	0.72	0.68	active
PCGF6	1	0.53	0.86	inactive
TULP2	1	0.05	1.55	inactive
ANKS6	1	0.75	0.68	inactive
CDC50A	1	0.95	0.66	inactive
SMR3B	1	0.84	0.98	inactive
CCDC162P	1	0.71	1.04	inactive
ASIC3	1	0.66	0.43	inactive
CTTN	1	0.71	0.33	inactive
HSD17B4	1	0.61	0.52	inactive
HSD17B10	1	0.92	0.64	inactive
OSBP2	1	0.54	0.06	active
ACTR2	1	0.45	1.04	inactive
MOK	1	0.34	1.76	inactive
TJP2	1	0.48	2.06	inactive
THAP7	1	0.5	1.33	inactive
DISP2	1	0.32	2.45	inactive
BBS10	1	0.73	0.3	inactive
UPF3B	1	0.59	1.04	inactive
HEMK2	1	0.78	0.85	inactive
ITPR1	1	0.87	1.13	inactive
RPL3	1	-0.08	1.88	inactive
SSX4B	1	0.57	0.74	inactive
SLC5A4	1	0.54	0.76	inactive
COPB2	1	-0.11	1.03	inactive
PRKAA2	1	0.57	0.9	inactive
LENEP	1	0.63	0.69	inactive
TMEM17	1	0.63	1.1	inactive
DPY19L3	1	1.08	0.98	inactive
APLN	1	0.63	0.44	active
KCNK12	1	0.95	0.74	inactive
TLR7	1	0.47	2.17	inactive
PAQR8	1	0.85	0.77	inactive
NBR1	1	0.24	1.36	inactive
HDGF	1	0.69	0.62	inactive
RXFP1	1	0.57	0.22	inactive
TMEM230	1	-0.12	1.29	inactive
VPS36	1	0.66	0.76	inactive
CT47A4	1	0.9	0.52	inactive
BNIP3L	1	0.42	0.53	inactive
RGS8	1	0.5	1.77	inactive
DACH1	1	0.45	1.46	inactive
PRSS35	1	0.59	1.09	inactive
MAGEA9	1	0.44	0.92	inactive
HERC1	1	0.54	0.57	inactive
TCF7	1	0.58	1.04	inactive
